# Measured data: PubChem BioAssay AID1224830 (NIAID, 2016)
# Purpose: 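Regulators of TLR4 signalling towards TNF-alpha in macrophage-like cells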 (primary screen)
# Cells: human THP-1 monocytic leukaemia cells, TNF dual-luciferase reporter clone, PMA-differentiated to macrophage-like cells
# Reagent: siRNA pool against human genes, 50 nM
# Duration: LPS for 4 h, given about 3 days after siRNA transfection
# Treatment: bacterial LPS (TLR4 ligand), 10 ng/ml
# Detection: 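TNF firefly reporter luminescence divided by renilla, normalised to the plate median, then turned into a robust z-score for each replicate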
# Scale: TNF reporter robust z-score: higher = stronger TNF reporter response to LPS
# Active means: 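a well is active when its z-score exceeds 2.8 or falls below -1.5; control wells carry no call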
# The whole screen tested about 18,000 reagents; shown is an unselected part. Over the whole deposit, about 2,900 (16%) were called active. 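Calls are made per well; low scores hint the gene aids the LPS response, high scores that it dampens it.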 Unmarked entries are inactive. Repeated entries: four replicate wells of each siRNA pool.
target,TNF reporter robust z-score
NBPF9 (NBPF member 9),-1.41
NBPF9 (NBPF member 9),-0.59
NBPF9 (NBPF member 9),-1.6 (active)
NBPF9 (NBPF member 9),-0.75
TMEM217 (transmembrane protein 217),-0.75
TMEM217 (transmembrane protein 217),-0.59
TMEM217 (transmembrane protein 217),-0.39
TMEM217 (transmembrane protein 217),-0.27
NCF4 (neutrophil cytosolic factor 4),0.16
NCF4 (neutrophil cytosolic factor 4),0.26
NCF4 (neutrophil cytosolic factor 4),0.46
NCF4 (neutrophil cytosolic factor 4),-0.15
ELOVL1 (ELOVL fatty acid elongase 1),1.87
ELOVL1 (ELOVL fatty acid elongase 1),2.01
ELOVL1 (ELOVL fatty acid elongase 1),1.59
ELOVL1 (ELOVL fatty acid elongase 1),2.78
BAZ1A (bromodomain adjacent to zinc finger domain 1A),-0.78
BAZ1A (bromodomain adjacent to zinc finger domain 1A),-1.07
BAZ1A (bromodomain adjacent to zinc finger domain 1A),-1.39
BAZ1A (bromodomain adjacent to zinc finger domain 1A),-0.76
C11orf87 (chromosome 11 open reading frame 87),0.59
C11orf87 (chromosome 11 open reading frame 87),0.7
C11orf87 (chromosome 11 open reading frame 87),0.25
C11orf87 (chromosome 11 open reading frame 87),0.93
CARD6 (caspase recruitment domain family member 6),-0.05
CARD6 (caspase recruitment domain family member 6),-0.65
CARD6 (caspase recruitment domain family member 6),-0.27
CARD6 (caspase recruitment domain family member 6),0.69
PEG3 (paternally expressed 3),0.52
PEG3 (paternally expressed 3),1.58
PEG3 (paternally expressed 3),1.55
PEG3 (paternally expressed 3),0.37
SNTG1 (syntrophin gamma 1),-1.09
SNTG1 (syntrophin gamma 1),-1.01
SNTG1 (syntrophin gamma 1),-0.44
SNTG1 (syntrophin gamma 1),0.13
DHCR7 (7-dehydrocholesterol reductase),0.74
DHCR7 (7-dehydrocholesterol reductase),0.64
DHCR7 (7-dehydrocholesterol reductase),1.17
DHCR7 (7-dehydrocholesterol reductase),1.09
GPN1 (GPN-loop GTPase 1),-0.44
GPN1 (GPN-loop GTPase 1),-0.91
GPN1 (GPN-loop GTPase 1),0.24
GPN1 (GPN-loop GTPase 1),0.57
SERHL2 (serine hydrolase like 2),-0.02
SERHL2 (serine hydrolase like 2),0.11
SERHL2 (serine hydrolase like 2),-0.32
SERHL2 (serine hydrolase like 2),0.01
SEC62 (SEC62 preprotein translocation factor),-0.58
SEC62 (SEC62 preprotein translocation factor),-0.52
SEC62 (SEC62 preprotein translocation factor),-0.34
SEC62 (SEC62 preprotein translocation factor),-0.45
CCR3 (C-C motif chemokine receptor 3),-0.58
CCR3 (C-C motif chemokine receptor 3),0.19
CCR3 (C-C motif chemokine receptor 3),-0.42
CCR3 (C-C motif chemokine receptor 3),-0.54
NOTCH3 (notch receptor 3),-0.59
NOTCH3 (notch receptor 3),0.14
NOTCH3 (notch receptor 3),-0.03
NOTCH3 (notch receptor 3),1.11
FRG2 (FSHD region gene 2),-1.19
FRG2 (FSHD region gene 2),-1.13
FRG2 (FSHD region gene 2),-0.68
FRG2 (FSHD region gene 2),-1.05
TACC1 (transforming acidic coiled-coil containing protein 1),1.18
TACC1 (transforming acidic coiled-coil containing protein 1),1.11
TACC1 (transforming acidic coiled-coil containing protein 1),4.85 (active)
TACC1 (transforming acidic coiled-coil containing protein 1),-0.44
SNX19 (sorting nexin 19),0.95
SNX19 (sorting nexin 19),2.02
SNX19 (sorting nexin 19),1.5
SNX19 (sorting nexin 19),2.5
"HLA-DQA2 (major histocompatibility complex, class II, DQ alpha 2)",-1.97 (active)
"HLA-DQA2 (major histocompatibility complex, class II, DQ alpha 2)",-1.34
"HLA-DQA2 (major histocompatibility complex, class II, DQ alpha 2)",-1.48
"HLA-DQA2 (major histocompatibility complex, class II, DQ alpha 2)",-1.85 (active)
SELP (selectin P),1.45
SELP (selectin P),2.57
SELP (selectin P),-0.04
SELP (selectin P),0.31
CHTF8 (chromosome transmission fidelity factor 8),-0.01
CHTF8 (chromosome transmission fidelity factor 8),0.36
CHTF8 (chromosome transmission fidelity factor 8),0.82
CHTF8 (chromosome transmission fidelity factor 8),1.55
OR10S1 (olfactory receptor family 10 subfamily S member 1),1.85
OR10S1 (olfactory receptor family 10 subfamily S member 1),1.37
OR10S1 (olfactory receptor family 10 subfamily S member 1),0.26
OR10S1 (olfactory receptor family 10 subfamily S member 1),1.5
LEMD2 (LEM domain nuclear envelope protein 2),-0.04
LEMD2 (LEM domain nuclear envelope protein 2),0.49
LEMD2 (LEM domain nuclear envelope protein 2),-0.13
LEMD2 (LEM domain nuclear envelope protein 2),0.56
IRF4 (interferon regulatory factor 4),-0.12
IRF4 (interferon regulatory factor 4),-0.27
IRF4 (interferon regulatory factor 4),-0.3
IRF4 (interferon regulatory factor 4),-0.46
SLC35A2,-0.43
SLC35A2,0.7
SLC35A2,-0.68
SLC35A2,1.14
"ABL1 (ABL proto-oncogene 1, non-receptor tyrosine kinase)",1.81
"ABL1 (ABL proto-oncogene 1, non-receptor tyrosine kinase)",2.19
"ABL1 (ABL proto-oncogene 1, non-receptor tyrosine kinase)",1.58
"ABL1 (ABL proto-oncogene 1, non-receptor tyrosine kinase)",2.65
LPAR4 (lysophosphatidic acid receptor 4),-1.49
LPAR4 (lysophosphatidic acid receptor 4),-0.39
LPAR4 (lysophosphatidic acid receptor 4),-1.22
LPAR4 (lysophosphatidic acid receptor 4),0.24
ATG4B (autophagy related 4B cysteine peptidase),0.28
ATG4B (autophagy related 4B cysteine peptidase),2.52
ATG4B (autophagy related 4B cysteine peptidase),0.41
ATG4B (autophagy related 4B cysteine peptidase),1.44
